# According to publication PMC6529516:
# Results are given in words; binding and its absence hold for the method and conditions named. Binding seen in cells or lysates may run through a third protein. Binding can be weak; no strength is given.
# B1: Ringmaker (Ringer), Drosophila homolog of human TPPP, endogenous (protein, UniProt Q9VV43 1-192)
# chain: MSEVAAANGSPSPAPTPEVPATELAQLALEDEPKVSFSDQFKAFSKFGDSKSDGKLITLSQSDKWMKQAKVIDKKITTTDTGIHFKKFKAMKISLSDYNKFLDDLAKTKKVELSEIKQKLASCGAPGVVSVSAGKAAAAVDRLTDTSKYTGSHKERFDASGKGKGIAGRRNVVDGSGYVSGYQHKDTYDNAH
# Biological target: Tubulin, endogenous (Drosophila (endogenous in adult fly heads))
# Assay: co-IP; wild type adult fly head lysates; IP with antibodies to the endogenous proteins (anti-Tub, anti-Futsch, anti-Ringer), immunoblot; ringer-/- or futsch-/- lysates as controls
binder,measurement,value
B1,binding,binds
